Among the targets are GFP-EXO1 R842A (UniProt Q9UQ84); GFP-EXO1 T824A (UniProt Q9UQ84); GFP-EXO1 F845A (UniProt Q9UQ84); GFP-EXO1 I844A (UniProt Q9UQ84); GFP-EXO1 WT (UniProt Q9UQ84); GFP-EXO1 Q846A (UniProt Q9UQ84); HA-EXO1 WT (UniProt Q9UQ84).
Test in all cases: co-IP
In a further assay the target is T1, Flag-tagged RRM2 I51A (UniProt P31350).
T1 sequence: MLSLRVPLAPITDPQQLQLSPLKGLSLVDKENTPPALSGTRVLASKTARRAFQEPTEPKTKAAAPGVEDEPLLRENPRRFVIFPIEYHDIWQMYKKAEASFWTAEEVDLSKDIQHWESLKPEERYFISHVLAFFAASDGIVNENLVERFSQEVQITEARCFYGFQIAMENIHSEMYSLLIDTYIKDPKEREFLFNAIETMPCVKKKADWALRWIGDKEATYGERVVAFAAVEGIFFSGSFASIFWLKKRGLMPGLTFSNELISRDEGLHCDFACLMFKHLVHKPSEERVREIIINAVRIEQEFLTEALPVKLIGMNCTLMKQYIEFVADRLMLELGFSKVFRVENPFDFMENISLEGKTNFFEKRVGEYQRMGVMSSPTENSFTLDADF

The chains behind the UniProt entries cited, without tags or fusion partners. Where a name states a change or a piece, a line headed by the entry shows the natural chain unless it says otherwise.
UniProt Q9UQ84, whole entry: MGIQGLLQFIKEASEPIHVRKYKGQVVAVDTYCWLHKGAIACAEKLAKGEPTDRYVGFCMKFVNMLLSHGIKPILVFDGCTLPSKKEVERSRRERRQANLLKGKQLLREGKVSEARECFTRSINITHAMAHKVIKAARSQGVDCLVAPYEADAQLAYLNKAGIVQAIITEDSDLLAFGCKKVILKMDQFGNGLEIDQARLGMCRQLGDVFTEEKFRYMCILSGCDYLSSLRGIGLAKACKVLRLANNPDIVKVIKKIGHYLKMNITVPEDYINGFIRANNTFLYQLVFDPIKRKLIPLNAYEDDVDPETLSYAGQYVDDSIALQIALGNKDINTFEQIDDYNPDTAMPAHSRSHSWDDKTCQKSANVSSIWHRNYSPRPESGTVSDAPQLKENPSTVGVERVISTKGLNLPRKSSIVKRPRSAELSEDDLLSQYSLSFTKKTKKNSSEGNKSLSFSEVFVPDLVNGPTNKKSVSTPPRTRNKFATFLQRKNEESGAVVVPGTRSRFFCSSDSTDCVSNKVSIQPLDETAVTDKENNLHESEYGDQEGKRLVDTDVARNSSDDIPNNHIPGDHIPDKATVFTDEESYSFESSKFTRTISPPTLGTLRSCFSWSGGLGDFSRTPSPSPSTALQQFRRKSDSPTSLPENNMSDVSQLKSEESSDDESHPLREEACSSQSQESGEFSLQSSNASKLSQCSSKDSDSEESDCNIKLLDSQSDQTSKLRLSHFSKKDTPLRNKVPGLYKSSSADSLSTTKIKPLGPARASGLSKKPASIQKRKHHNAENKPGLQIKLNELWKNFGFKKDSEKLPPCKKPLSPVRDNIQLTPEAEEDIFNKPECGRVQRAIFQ

The next assay deals with T2, Flag-tagged RRM2 WT (UniProt P31350).
T2 sequence: T1 sequence with A51I

The next assay deals with T3, Flag-tagged RRM2 Q53A (UniProt P31350).
T3 sequence: T1 sequence with A51I, Q53A

Another assay has as its target T4, Flag-tagged RRM2 F52A (UniProt P31350).
T4 sequence: T1 sequence with A51I, F52A

Another assay deals with T5, Flag-tagged RRM2 R49A (UniProt P31350).
T5 sequence: T1 sequence with R49A, A51I

Assay [1] deals with EXO1 WT (construct of Figure 4C) (UniProt Q9UQ84).

Where a chain is given by its changes, count along the chain named. No constants are given. Whether binding was seen depends on the method and setting. In cells and extracts the contact can be indirect. Some entries that bind do so weakly or less than the wild type. For some of these results: Tags and fused reporters may be left off the sequences shown.

B1: endogenous cyclin F (HEK293T) (protein, UniProt P41002 1-786)
chain: MGSGGVVHCRCAKCFCYPTKRRIRRRPRNLTILSLPEDVLFHILKWLSVEDILAVRAVHSQLKDLVDNHASVWACASFQELWPSPGNLKLFERAAEKGNFEAAVKLGIAYLYNEGLSVSDEARAEVNGLKASRFFSLAERLNVGAAPFIWLFIRPPWSVSGSCCKAVVHESLRAECQLQRTHKASILHCLGRVLSLFEDEEKQQQAHDLFEEAAHQGCLTSSYLLWESDRRTDVSDPGRCLHSFRKLRDYAAKGCWEAQLSLAKACANANQLGLEVRASSEIVCQLFQASQAVSKQQVFSVQKGLNDTMRYILIDWLVEVATMKDFTSLCLHLTVECVDRYLRRRLVPRYRLQLLGIACMVICTRFISKEILTIREAVWLTDNTYKYEDLVRMMGEIVSALEGKIRVPTVVDYKEVLLTLVPVELRTQHLCSFLCELSLLHTSLSAYAPARLAAAALLLARLTHGQTQPWTTQLWDLTGFSYEDLIPCVLSLHKKCFHDDAPKDYRQVSLTAVKQRFEDKRYGEISQEEVLSYSQLCAALGVTQDSPDPPTFLSTGEIHAFLSSPSGRRTKRKRENSLQEDRGSFVTTPTAELSSQEETLLGSFLDWSLDCCSGYEGDQESEGEKEGDVTAPSGILDVTVVYLNPEQHCCQESSDEEACPEDKGPQDPQALALDTQIPATPGPKPLVRTSREPGKDVTTSGYSSVSTASPTSSVDGGLGALPQPTSVLSLDSDSHTQPCHHQARKSCLQCRPPSPPESSVPQQQVKRINLCIHSEEEDMNLGLVRL
On to B1, for which the binding entry is given as “no binding” in the assay with GFP-EXO1 R842A; “no binding” in the assay with GFP-EXO1 T824A; “no binding” with GFP-EXO1 F845A; “no binding” with Flag-tagged RRM2 I51A; “binds” with Flag-tagged RRM2 WT; “binds” in the assay with Flag-tagged RRM2 Q53A. In addition, the binding result is “no binding” with Flag-tagged RRM2 F52A; “no binding” with GFP-EXO1 I844A; “binds” with GFP-EXO1 WT; “binds” with GFP-EXO1 Q846A; “no binding” with Flag-tagged RRM2 R49A; “binds” in assay [1].

B2: cyclin F (LN229) (protein, UniProt P41002 1-786)
chain: B1 chain
Regarding B2, the binding entry in the assay with HA-EXO1 WT was “binds”.

The values above are taken from article doi:10.1101/2023.10.26.562393.
